In PMC11294477:
Results are given in words; binding and its absence hold for the method and conditions named. In cells and extracts the contact can be indirect. A result given as binding can be weak or reduced; the word gives no strength. Sequences can lack the tags named with a protein.

Biological target: T1, LPHN2-GFP (UniProt O95490)
T1 sequence: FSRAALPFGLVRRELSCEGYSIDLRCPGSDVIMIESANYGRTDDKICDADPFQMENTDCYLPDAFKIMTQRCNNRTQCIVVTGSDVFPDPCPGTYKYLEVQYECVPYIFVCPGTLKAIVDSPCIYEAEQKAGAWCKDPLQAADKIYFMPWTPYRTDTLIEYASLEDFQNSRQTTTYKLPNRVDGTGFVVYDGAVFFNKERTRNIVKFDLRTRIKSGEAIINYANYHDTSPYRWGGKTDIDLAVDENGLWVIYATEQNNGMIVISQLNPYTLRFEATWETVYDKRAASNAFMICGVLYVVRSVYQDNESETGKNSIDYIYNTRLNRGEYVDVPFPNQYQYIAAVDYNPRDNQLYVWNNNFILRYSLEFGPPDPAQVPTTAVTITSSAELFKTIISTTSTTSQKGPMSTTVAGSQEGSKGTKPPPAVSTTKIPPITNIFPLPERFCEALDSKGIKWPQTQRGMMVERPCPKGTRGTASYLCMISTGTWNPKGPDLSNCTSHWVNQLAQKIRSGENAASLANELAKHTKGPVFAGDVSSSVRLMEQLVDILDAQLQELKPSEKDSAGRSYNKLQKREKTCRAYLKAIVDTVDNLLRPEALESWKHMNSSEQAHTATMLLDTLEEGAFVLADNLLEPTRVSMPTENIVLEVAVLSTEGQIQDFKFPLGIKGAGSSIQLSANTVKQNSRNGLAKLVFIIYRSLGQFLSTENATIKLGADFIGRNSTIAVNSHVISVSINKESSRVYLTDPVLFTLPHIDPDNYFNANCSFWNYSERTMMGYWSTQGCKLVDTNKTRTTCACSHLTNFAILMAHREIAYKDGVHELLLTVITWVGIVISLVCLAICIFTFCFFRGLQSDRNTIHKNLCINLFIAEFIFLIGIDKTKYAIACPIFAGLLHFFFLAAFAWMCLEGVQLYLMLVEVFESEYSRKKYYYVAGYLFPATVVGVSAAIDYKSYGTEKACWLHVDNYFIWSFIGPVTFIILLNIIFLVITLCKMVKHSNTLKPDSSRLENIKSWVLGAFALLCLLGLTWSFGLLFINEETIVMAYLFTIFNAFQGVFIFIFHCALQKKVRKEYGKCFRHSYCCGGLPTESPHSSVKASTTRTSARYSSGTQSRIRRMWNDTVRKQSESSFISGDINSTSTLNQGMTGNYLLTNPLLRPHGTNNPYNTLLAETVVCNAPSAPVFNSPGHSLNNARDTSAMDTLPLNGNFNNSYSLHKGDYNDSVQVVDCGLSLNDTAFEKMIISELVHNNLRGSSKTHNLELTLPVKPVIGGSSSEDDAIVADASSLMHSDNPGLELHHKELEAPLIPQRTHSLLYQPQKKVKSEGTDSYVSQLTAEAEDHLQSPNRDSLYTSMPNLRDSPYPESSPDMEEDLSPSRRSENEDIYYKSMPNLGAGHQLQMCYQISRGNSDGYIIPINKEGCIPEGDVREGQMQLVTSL
Test: co-IP; LPHN2-GFP with Gα proteins containing internal GluGlu epitope tags

## GluGlu-tagged Gi2 (human)
  binding: binds
